For the assay, the target named is KIR3DL1*001 (Homo sapiens, UniProt P43629). The following applies: ternary complex KIR3DL1*001–HLA-B*57:01–peptide.

Protein sequences, listed by entry. Tags and fused reporters are not part of them. Residues count along the entry.
UniProt P43629, 22-320: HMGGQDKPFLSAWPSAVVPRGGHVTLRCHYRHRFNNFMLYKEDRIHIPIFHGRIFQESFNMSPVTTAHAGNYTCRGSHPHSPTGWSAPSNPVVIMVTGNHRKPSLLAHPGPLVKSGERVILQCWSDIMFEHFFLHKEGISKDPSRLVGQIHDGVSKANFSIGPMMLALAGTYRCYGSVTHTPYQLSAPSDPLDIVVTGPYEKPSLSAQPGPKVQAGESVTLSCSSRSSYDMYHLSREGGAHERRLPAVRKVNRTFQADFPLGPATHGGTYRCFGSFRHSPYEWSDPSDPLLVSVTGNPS

In the case of TSNLQEQIGW [T3N], the “direct contacts between KIR3DL1 and peptide” value is “two contacts”.

Values taken from paper PMC7900914 (Nature structural & molecular biology, 2017).
